ChEMBL document CHEMBL5244208, “Privileged scaffolds as MAO inhibitors: Retrospect and prospects” (Eur J Med Chem, 2018)
pIC50: −log10 of the molar value.

Chains of the proteins cited; added tags and fusions are not shown. Lines headed by an entry give the natural chain unless they say otherwise; changes in a name come on top.
UniProt P22303: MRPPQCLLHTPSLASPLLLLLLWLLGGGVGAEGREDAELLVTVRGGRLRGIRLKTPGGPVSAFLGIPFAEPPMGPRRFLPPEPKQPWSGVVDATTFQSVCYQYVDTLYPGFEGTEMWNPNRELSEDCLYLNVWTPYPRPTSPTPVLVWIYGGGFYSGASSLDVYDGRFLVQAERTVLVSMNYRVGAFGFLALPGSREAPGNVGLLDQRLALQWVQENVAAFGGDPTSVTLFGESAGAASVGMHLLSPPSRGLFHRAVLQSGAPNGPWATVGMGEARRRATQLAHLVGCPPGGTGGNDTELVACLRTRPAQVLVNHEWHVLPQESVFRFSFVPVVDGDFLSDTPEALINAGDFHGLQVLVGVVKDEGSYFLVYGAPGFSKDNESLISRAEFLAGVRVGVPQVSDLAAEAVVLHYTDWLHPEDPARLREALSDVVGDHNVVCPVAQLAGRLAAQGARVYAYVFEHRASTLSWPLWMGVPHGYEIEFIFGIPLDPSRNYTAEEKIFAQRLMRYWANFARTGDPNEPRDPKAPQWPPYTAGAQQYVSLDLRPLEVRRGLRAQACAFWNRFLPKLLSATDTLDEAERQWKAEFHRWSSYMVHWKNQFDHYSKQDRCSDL

molecular target: Acetylcholinesterase (Homo sapiens, UniProt P22303); assay: Inhibition of AChE (unknown origin) using acetylthiocholine chloride as substrate incubated for 5 mins by DTNB reagent based Ellman's method

Structure (SMILES)	pIC50
COc1cccc(COc2ccc3c(C)c(C)c(=O)oc3c2)c1	5.52
Cc1c(C)c2ccc(OCc3cccc(Cl)c3)cc2oc1=O	5.52
Cc1c(C)c2ccc(OCc3cccc(F)c3)cc2oc1=O	5.52
Cc1cccc(COc2ccc3c(C)c(C)c(=O)oc3c2)c1	5.52
Cc1c(C)c2ccc(OCc3ccc(F)cc3)cc2oc1=O	5.52
Cc1ccc(COc2ccc3c(C)c(C)c(=O)oc3c2)cc1	5.52
